Where a chain is given by its changes, count along the chain named. No constants are given. Whether binding was seen depends on the method and setting. Some results given as binding are weak or reduced against the parent protein; the word gives no strength.
How the values were obtained:
[1] = target: T1, Dansylated myocilin olfactomedin domain (human) (UniProt Q99972); experiment: cross-linking; Grp94FL:OLF 1:20, OLF 100 μM (dansylated or label-free), PBS, pre-incubated 30 min at 42 °C, 50 μM BS3(d0/d4) 1 h at 42 °C; SDS-PAGE (Coomassie, dansyl fluorescence), in-gel digestion and LC-MS; both purified
T1 sequence (chain, dansyl (~2 dansyl modifications per OLFd by MS), sites not stated): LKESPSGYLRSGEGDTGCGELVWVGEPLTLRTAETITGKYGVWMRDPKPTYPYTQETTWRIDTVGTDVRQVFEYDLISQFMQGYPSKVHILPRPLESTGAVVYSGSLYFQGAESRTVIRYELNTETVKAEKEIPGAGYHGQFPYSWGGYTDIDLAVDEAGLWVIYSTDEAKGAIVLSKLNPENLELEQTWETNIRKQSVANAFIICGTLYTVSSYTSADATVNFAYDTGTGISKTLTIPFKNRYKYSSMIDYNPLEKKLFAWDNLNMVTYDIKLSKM

Sequences of proteins named here, by UniProt entry; tags and fusion partners are left off. Residues count along the entry.
UniProt P14625, residues 22-803: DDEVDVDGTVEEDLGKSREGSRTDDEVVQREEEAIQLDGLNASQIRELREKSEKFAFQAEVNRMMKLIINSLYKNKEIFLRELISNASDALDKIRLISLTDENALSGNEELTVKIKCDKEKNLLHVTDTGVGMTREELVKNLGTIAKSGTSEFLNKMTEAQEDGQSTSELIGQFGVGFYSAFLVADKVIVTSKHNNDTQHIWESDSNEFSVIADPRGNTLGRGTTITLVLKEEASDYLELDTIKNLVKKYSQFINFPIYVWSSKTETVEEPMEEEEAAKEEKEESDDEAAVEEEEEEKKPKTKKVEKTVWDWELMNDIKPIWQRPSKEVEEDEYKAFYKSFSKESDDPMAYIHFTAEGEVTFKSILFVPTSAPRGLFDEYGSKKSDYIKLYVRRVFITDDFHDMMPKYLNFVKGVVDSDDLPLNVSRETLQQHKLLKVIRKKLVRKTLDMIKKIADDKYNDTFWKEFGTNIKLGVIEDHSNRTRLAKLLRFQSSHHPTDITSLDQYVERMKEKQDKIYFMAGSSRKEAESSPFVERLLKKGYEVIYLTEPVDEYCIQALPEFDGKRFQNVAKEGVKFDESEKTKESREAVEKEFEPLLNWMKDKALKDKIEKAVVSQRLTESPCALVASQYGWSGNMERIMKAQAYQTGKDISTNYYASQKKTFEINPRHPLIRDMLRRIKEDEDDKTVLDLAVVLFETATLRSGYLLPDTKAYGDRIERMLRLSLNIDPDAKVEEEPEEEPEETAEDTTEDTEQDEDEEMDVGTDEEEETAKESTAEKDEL

[2] = target: T2, Dansylated myocilin olfactomedin domain with the glaucoma-associated D380A variant (human) (UniProt Q99972); experiment: fluorescence polarisation; 0.01 μM OLFd D380A with 0-185.6 μM Grp94 (monomer) in PBS, 25 °C, excitation 340 nm, emission 492 nm, background-corrected with Grp94FL-only samples; both purified
T2 sequence (chain, dansyl, sites not stated): T1 sequence (chain, dansyl (~2 dansyl modifications per OLFd by MS), sites not stated) with D153A

## Full-length Grp94 (glucose regulated protein 94), residues 22-803 (from UniProt P14625 22-803)
[1]
  binding: binds weakly
[2]
  binding: no binding (tested: 93 μM Grp94 dimer: 0.01 μM OLF)

Reference: PMC6726633, “Different Grp94 components interact transiently with the myocilin olfactomedin domain in vitro to enhance or retard its amyloid aggregation” (Scientific Reports, 2019)
